PubChem BioAssay AID1259308 – NCATS, 2017

Screen: 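Knock-downs that increase output of a recombinant reporter protein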 (primary screen)
System: human HEK293 embryonic kidney cells stably expressing firefly luciferase (HEK-CMV-Luc2-Hygro)
Reagent: single siRNA against human genes, 0.8 pmol siRNA per well
Time to read-out: 72 h
Detection: 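Luciferase light (ONE-Glo) measured on one replicate plate set and viability (CellTiter-Glo) on the other, scaled to a negative control siRNA, with robust z-scores and luciferase per cell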
Reading the numbers: total luciferase, z-score and total luciferase, % of control: higher = more reporter protein produced
Rule for the call: 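An siRNA counts as active if its total luciferase robust z-score exceeds 3; genes with two or more such siRNAs out of three were retested with fresh siRNAs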
Calls: active = raised luciferase; inactive = no rise
The deposit covers about 59,000 reagents; shown is a random part of them. In the full data, about 1,510 (2.6%) were called active. 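Calls use total luciferase alone and ignore viability, so some active siRNAs may act by altering cell number.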 Unmarked entries are inactive. The numbers tell different reagents against one gene apart. Not all columns of the deposit are shown. Reagent sequences are not shown.

| gene | siRNA no. | total luciferase, z-score | total luciferase, % of control |
| --- | --- | --- | --- |
| OR10AG1 | 1 | -0.339 | 75.1 |
| OR10AG1 | 2 | -2.36 | 35 |
| OR10AG1 | 3 | 0.557 | 93 |
| SCP2D1 | 1 | 0.601 | 93.8 |
| SCP2D1 | 2 | 0.538 | 92.6 |
| SCP2D1 | 3 | 0.31 | 88.1 |
| AP2A2 | 1 | -0.0211 | 81.5 |
| AP2A2 | 2 | -0.599 | 70 |
| AP2A2 | 3 | 2.33 | 128 |
| TAS2R20 | 1 | 0.407 | 90 |
| TAS2R20 | 2 | 0.336 | 88.6 |
| TAS2R20 | 3 | 1.28 | 107 |
| THYN1 | 1 | -0.281 | 76.3 |
| THYN1 | 2 | -2.25 | 37.1 |
| THYN1 | 3 | 0.866 | 99.1 |
| RGS7 | 1 | -0.626 | 69.4 |
| RGS7 | 2 | 0.206 | 86 |
| RGS7 | 3 | 0.211 | 86.1 |
| ARMC7 | 1 | 0.211 | 86.1 |
| ARMC7 | 2 | -0.621 | 69.5 |
| ARMC7 | 3 | 0.619 | 94.2 |
| MRPS25 | 1 | 0.694 | 95.7 |
| MRPS25 | 2 | -0.674 | 68.5 |
| MRPS25 | 3 | -0.0595 | 80.7 |
| SMU1 | 1 | 0.0207 | 82.3 |
| SMU1 | 2 | 0.663 | 95.1 |
| SMU1 | 3 | 0.317 | 88.2 |
| LINC02667 | 1 | -0.484 | 72.3 |
| LINC02667 | 2 | -1.77 | 46.7 |
| LINC02667 | 3 | -2.11 | 39.9 |
| TM7SF2 | 1 | -0.615 | 69.7 |
| TM7SF2 | 2 | 1.43 | 110 |
| TM7SF2 | 3 | -0.0291 | 81.3 |
| MVB12A | 1 | -0.0514 | 80.9 |
| MVB12A | 2 | 2.06 | 123 |
| MVB12A | 3 | -0.0827 | 80.2 |
| TTC29 | 1 | -1.61 | 49.9 |
| TTC29 | 2 | 0.329 | 88.4 |
| TTC29 | 3 | -0.554 | 70.9 |
